# According to the supplement of paper PMC10849652:
# The chains behind the UniProt entries cited, without tags or fusion partners. Where a name states a change or a piece, a line headed by the entry shows the natural chain unless it says otherwise.
# UniProt P42898: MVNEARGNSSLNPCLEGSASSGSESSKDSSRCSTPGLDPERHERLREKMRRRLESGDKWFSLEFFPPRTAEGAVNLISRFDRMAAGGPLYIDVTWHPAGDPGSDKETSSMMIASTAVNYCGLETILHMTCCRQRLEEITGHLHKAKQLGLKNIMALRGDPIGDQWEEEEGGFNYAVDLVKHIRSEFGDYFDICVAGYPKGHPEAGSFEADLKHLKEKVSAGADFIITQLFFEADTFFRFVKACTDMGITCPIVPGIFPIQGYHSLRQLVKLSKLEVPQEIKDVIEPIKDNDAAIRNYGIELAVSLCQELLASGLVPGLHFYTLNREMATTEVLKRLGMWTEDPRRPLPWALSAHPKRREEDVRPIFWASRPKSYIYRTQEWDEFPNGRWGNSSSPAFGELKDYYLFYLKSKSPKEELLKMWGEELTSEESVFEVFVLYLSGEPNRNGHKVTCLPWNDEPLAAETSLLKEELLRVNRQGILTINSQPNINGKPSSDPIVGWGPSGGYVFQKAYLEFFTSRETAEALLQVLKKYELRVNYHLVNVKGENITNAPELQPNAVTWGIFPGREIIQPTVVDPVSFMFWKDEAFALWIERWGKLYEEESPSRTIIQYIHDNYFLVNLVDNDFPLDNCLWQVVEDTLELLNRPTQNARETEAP
# UniProt Q9UDX5: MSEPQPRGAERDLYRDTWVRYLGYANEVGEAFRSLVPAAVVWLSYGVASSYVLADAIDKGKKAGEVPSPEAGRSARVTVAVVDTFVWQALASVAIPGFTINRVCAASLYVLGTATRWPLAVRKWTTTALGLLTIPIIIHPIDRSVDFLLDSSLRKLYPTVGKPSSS
# UniProt Q9NZJ7, whole entry, looked up: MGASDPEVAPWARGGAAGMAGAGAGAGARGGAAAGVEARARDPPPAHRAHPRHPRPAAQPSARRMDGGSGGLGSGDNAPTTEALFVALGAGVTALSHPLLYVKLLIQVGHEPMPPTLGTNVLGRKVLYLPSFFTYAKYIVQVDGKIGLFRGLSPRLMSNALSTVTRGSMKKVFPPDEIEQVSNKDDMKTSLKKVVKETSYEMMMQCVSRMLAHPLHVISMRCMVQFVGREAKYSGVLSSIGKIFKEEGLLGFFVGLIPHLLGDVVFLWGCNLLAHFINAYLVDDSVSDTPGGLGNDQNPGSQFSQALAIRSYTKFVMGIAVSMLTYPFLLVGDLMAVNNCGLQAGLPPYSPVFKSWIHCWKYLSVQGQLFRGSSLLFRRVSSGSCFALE
# UniProt P00846: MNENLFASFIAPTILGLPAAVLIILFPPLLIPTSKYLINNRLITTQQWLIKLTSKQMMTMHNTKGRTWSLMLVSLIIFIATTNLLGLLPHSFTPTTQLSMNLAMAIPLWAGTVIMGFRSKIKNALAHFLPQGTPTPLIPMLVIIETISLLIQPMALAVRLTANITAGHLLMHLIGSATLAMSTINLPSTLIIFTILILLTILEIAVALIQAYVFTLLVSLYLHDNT
# UniProt P82909: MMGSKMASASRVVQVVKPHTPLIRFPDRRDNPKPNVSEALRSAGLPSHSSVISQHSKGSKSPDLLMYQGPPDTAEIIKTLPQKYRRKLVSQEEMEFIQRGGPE
# UniProt O94776: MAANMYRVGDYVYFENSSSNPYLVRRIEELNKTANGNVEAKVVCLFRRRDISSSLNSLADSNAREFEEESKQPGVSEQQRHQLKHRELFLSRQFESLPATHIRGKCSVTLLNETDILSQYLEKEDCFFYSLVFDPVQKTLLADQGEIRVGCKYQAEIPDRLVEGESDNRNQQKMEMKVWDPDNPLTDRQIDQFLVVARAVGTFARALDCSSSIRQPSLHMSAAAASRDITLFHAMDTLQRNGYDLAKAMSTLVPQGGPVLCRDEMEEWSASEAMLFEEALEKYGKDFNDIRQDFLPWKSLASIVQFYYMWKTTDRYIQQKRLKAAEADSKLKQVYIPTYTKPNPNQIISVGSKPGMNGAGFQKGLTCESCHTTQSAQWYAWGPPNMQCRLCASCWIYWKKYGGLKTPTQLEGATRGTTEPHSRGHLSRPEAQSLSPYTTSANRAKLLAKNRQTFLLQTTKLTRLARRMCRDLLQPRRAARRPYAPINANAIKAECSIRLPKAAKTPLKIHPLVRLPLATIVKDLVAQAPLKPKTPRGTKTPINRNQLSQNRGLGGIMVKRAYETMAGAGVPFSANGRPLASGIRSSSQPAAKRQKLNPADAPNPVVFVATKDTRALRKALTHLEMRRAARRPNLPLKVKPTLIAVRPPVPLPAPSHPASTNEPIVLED
# The other results are listed elsewhere or left out.
# Assays:
# Assay in all cases: log2 fold change, soluble protein after heating vs DMSO (PISA); higher = thermal stabilisation; K562 lysate, 10 uM; active = over 0.2 and 3.5 SD of the protein, either way, in both replicates (recomputed)
# ibrutinib = compound: C=CC(=O)N1CCC[C@@H](n2nc(-c3ccc(Oc4ccccc4)cc3)c3c(N)ncnc32)C1 [ibrutinib]
# In short: (§1)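 Values give the log-two fold change in thermal stability against solvent controls, from duplicates. Crude K562 extract at 1 mg/mL protein, made by dounce homogenisation in PBS pH 7.4 with 1 mM MgCl2, was treated with 10 μM compound for 30 min. After 3 min heating across 48°C-58°C, aliquots were pooled, adjusted to 0.5% NP-40 at 4°C and centrifuged at 21,000xg for 90 min. The supernatant was measured by TMTpro 16plex LC-MS/MS with channel sums equalised.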
# [1] = compound: CC(=O)c1cnc2ccc(-c3cc(Cl)c(O)c(Cl)c3)nc2c1N[C@H]1CC[C@H](CN(C)C)CC1
# In short: as §1
# ralimetinib = compound: CC(C)(C)Cn1c(N)nc2ccc(-c3[nH]c(C(C)(C)C)nc3-c3ccc(F)cc3)nc21 [ralimetinib]
# In short: as §1
# [2] = compound: CC(C)(O)CC(=O)NCCn1ccc2ncnc(Nc3ccc(Oc4cccc(C(F)(F)F)c4)c(Cl)c3)c21
# In short: as §1
# [3] = compound: CC(C)C1=C2N=C(C=C(N2N=C1)NCC3=CC=CC=C3)NCCCCCCN
# In short: as §1
# [4] = compound: CC1=C(C(CC(=O)N1)C2=CC=C(C=C2)C(F)(F)F)C(=O)NC3=C(C=C4C(=C3)C=NN4)F
# In short: as §1
# [5] = compound: CC1=C(C2=C(C=C1)C(=O)C3=CC=CC=C3N2CCCN)C
# In short: as §1
# [6] = compound: CC1=C(C=C(C=C1)NC(=O)C2=CC(=CC=C2)C(C)(C)C#N)NC3=CC4=C(C=C3)N=CN(C4=O)C
# In short: as §1
# [7] = compound: CC1=C(C=C(C=C1)NC(=O)C2=CC(=CC=C2)N(C)C)NC(=O)C3=CC=C(C=C3)O
# In short: as §1
# [8] = compound: CC1=CC=C(C=C1)SC2=C3C=C(SC3=CN=C2)C(=O)N
# In short: as §1
# vemurafenib = compound: CCCS(=O)(=O)Nc1ccc(F)c(C(=O)c2c[nH]c3ncc(-c4ccc(Cl)cc4)cc23)c1F [vemurafenib]
# In short: as §1
# [9] = compound: CCCS(=O)(=O)Nc1ccc(F)c(C(=O)c2c[nH]c3ncc(Cl)cc23)c1F
# In short: as §1
# barasertib = compound: CCN(CCCOc1ccc2c(Nc3cc(CC(=O)Nc4cccc(F)c4)[nH]n3)ncnc2c1)CCOP(=O)(O)O [barasertib]
# In short: as §1
# [10] = compound: CC[C@@H]1C(=O)N(C)c2cnc(Nc3ccc(C(=O)NC4CCN(C)CC4)cc3OC)nc2N1C1CCCC1
# In short: as §1
# volasertib = compound: CC[C@@H]1C(=O)N(C)c2cnc(Nc3ccc(C(=O)N[C@H]4CC[C@H](N5CCN(CC6CC6)CC5)CC4)cc3OC)nc2N1C(C)C [volasertib]
# In short: as §1
# [11] = compound: CCn1c(C(=O)N(C2CC2)C2CC2)cc2c3c(ncn3C)c(Nc3cc(C)n(C)n3)nc21
# In short: as §1
# [12] = compound: CCn1cc(-c2ccnc3[nH]c(-c4cccc(CN(C)C)c4)cc23)c(-c2ccc(NC(=O)N(C)C)cc2)n1
# In short: as §1
# [13] = compound: CN1CCC(CNc2ccc3ncc(-c4cccc(OC(F)(F)F)c4)n3n2)CC1
# In short: as §1
# saracatinib = compound: CN1CCN(CCOc2cc(OC3CCOCC3)c3c(Nc4c(Cl)ccc5c4OCO5)ncnc3c2)CC1 [saracatinib]
# In short: as §1
# sotrastaurin = compound: CN1CCN(c2nc(C3=C(c4c[nH]c5ccccc45)C(=O)NC3=O)c3ccccc3n2)CC1 [sotrastaurin]
# In short: as §1
Target,log2 fold change (ibrutinib),log2 fold change [1],log2 fold change (ralimetinib),log2 fold change [2],log2 fold change [3],log2 fold change [4],log2 fold change [5],log2 fold change [6],log2 fold change [7],log2 fold change [8],log2 fold change (vemurafenib),log2 fold change [9],log2 fold change (barasertib),log2 fold change [10],log2 fold change (volasertib),log2 fold change [11],log2 fold change [12],log2 fold change [13],log2 fold change (saracatinib),log2 fold change (sotrastaurin)
MTHFR isoform 2 (UniProt P42898),inactive: -0.01,inactive: -0.005,inactive: 0.02,inactive: -0.004,inactive: 0.008,inactive: 0.015,inactive: -0.003,inactive: 0.017,inactive: 0.021,inactive: -0.006,inactive: -0.009,inactive: 0.006,inactive: 0.032,inactive: -0.013,inactive: -0.023,inactive: -0.002,inactive: 0.021,inactive: 0.035,inactive: 0.002,inactive: 0.015
MTFP1 (UniProt Q9UDX5),inactive: 0.097,inactive: -0.065,inactive: -0.017,inactive: 0.079,inactive: -0.058,inactive: 0.018,inactive: 0.009,inactive: -0.011,inactive: -0.048,inactive: -0.001,inactive: -0.025,inactive: 0.031,inactive: 0.012,inactive: 0.036,inactive: 0.041,inactive: 0.061,active: -0.421,inactive: 0.041,inactive: -0.042,inactive: 0.004
MRPS31 (UniProt Q92665),inactive: -0.01,inactive: -0.039,inactive: -0.006,inactive: -0.006,inactive: 0,inactive: -0.01,inactive: -0.071,inactive: -0.006,inactive: -0.022,inactive: -0.006,inactive: 0.043,inactive: -0.001,inactive: -0.011,inactive: 0.041,inactive: -0.004,inactive: -0.026,inactive: -0.046,inactive: 0.034,inactive: 0.014,inactive: 0.021
MRPS6 (UniProt P82932),inactive: 0.036,inactive: 0.039,inactive: 0.016,inactive: -0.012,inactive: -0.034,inactive: 0.065,inactive: -0.063,inactive: 0.05,inactive: 0.037,inactive: 0.03,inactive: 0.002,inactive: -0.013,inactive: -0.013,inactive: 0.013,inactive: 0.049,inactive: 0.035,inactive: -0.037,inactive: -0.01,inactive: 0.01,inactive: 0.036
MRPL46 (UniProt Q9H2W6),inactive: -0.101,inactive: 0.018,inactive: 0.048,inactive: 0.026,inactive: -0.064,inactive: -0.002,inactive: 0.005,inactive: -0.002,inactive: 0.026,inactive: 0.021,inactive: 0.058,inactive: -0.001,inactive: -0.015,inactive: 0.115,inactive: 0.044,inactive: 0.064,active: 0.523,inactive: -0.029,inactive: 0.024,inactive: 0.032
MTCH1 (UniProt Q9NZJ7),inactive: -0.008,inactive: -0.032,inactive: 0.025,inactive: 0.043,inactive: 0.032,inactive: -0.014,inactive: -0.059,inactive: -0.015,inactive: -0.039,inactive: 0.015,inactive: 0.07,inactive: 0.003,inactive: -0.015,inactive: 0.022,inactive: 0.027,inactive: -0.047,inactive: -0.208,inactive: 0.07,inactive: 0.001,inactive: -0.022
MTHFD1L (UniProt B7ZM99),inactive: -0.034,inactive: -0.014,inactive: 0.004,inactive: 0.011,inactive: -0.007,inactive: -0.005,inactive: -0.006,inactive: 0.033,inactive: 0.02,inactive: -0.023,inactive: 0.01,inactive: 0,inactive: -0.033,inactive: -0.111,inactive: -0.002,inactive: 0.019,inactive: -0.013,inactive: -0.056,inactive: 0.004,inactive: 0.036
MT-ATP6 (UniProt P00846),inactive: -0.11,inactive: -0.06,inactive: -0.039,inactive: -0.141,inactive: -0.106,inactive: 0.064,inactive: -0.016,inactive: 0.034,inactive: -0.16,inactive: 0.13,inactive: -0.096,inactive: -0.026,inactive: 0.288,inactive: -0.095,inactive: -0.009,inactive: 0.404,inactive: -0.081,inactive: 0.078,inactive: -0.13,inactive: -0.023
MRPL40 (UniProt Q9NQ50),inactive: 0.016,inactive: 0.077,inactive: 0.034,inactive: -0.031,inactive: -0.005,inactive: -0.016,inactive: -0.116,inactive: 0.037,inactive: 0.016,inactive: -0.002,inactive: -0.039,inactive: 0.003,inactive: -0.033,inactive: 0.147,inactive: 0.032,inactive: -0.01,inactive: 0.031,inactive: -0.046,inactive: 0.019,inactive: 0.014
MRPL3 (UniProt P09001),inactive: 0.122,inactive: 0.005,inactive: 0.038,inactive: 0.011,inactive: 0.027,inactive: 0.015,inactive: -0.106,inactive: -0.073,inactive: 0.029,inactive: 0.039,inactive: 0.064,inactive: 0.013,inactive: -0.004,inactive: -0.001,inactive: -0.009,inactive: 0.007,inactive: -0.199,inactive: 0.042,inactive: -0.068,inactive: 0.023
MRPS26 (UniProt Q9BYN8),inactive: 0.126,inactive: -0.183,inactive: -0.011,inactive: -0.008,inactive: -0.028,inactive: -0.016,inactive: -0.045,inactive: -0.006,inactive: 0.106,inactive: 0.156,inactive: 0.027,inactive: 0.058,inactive: -0.021,inactive: -0.031,inactive: -0.083,inactive: -0.108,inactive: -0.139,inactive: -0.031,inactive: 0.051,inactive: 0.002
MTOR (UniProt P42345),inactive: -0.016,inactive: 0.001,inactive: 0.018,inactive: -0.005,inactive: -0.043,inactive: 0.02,inactive: 0.019,inactive: 0.031,inactive: 0.058,inactive: -0.013,inactive: 0.026,inactive: 0.015,inactive: 0.052,inactive: -0.045,inactive: -0.044,inactive: -0.006,inactive: -0.04,inactive: -0.031,inactive: 0.005,inactive: 0.03
MRPS36 (UniProt P82909),inactive: 0.029,inactive: 0.046,inactive: -0.073,inactive: -0.027,inactive: -0.014,inactive: 0.002,inactive: -0.035,inactive: 0.052,inactive: 0.01,inactive: -0.042,inactive: -0.009,inactive: 0.024,inactive: -0.082,inactive: 0.056,inactive: -0.028,inactive: -0.044,inactive: -0.199,inactive: 0.102,inactive: 0.019,inactive: 0.039
MTA2 (UniProt O94776),inactive: -0.014,inactive: -0.023,inactive: 0.03,inactive: 0.021,inactive: 0.032,inactive: 0.011,inactive: 0.018,inactive: -0.008,inactive: 0.043,inactive: -0.009,inactive: 0.007,inactive: 0.018,inactive: 0.026,inactive: 0.03,inactive: -0.008,inactive: 0.025,inactive: -0.021,inactive: -0.031,inactive: 0.015,inactive: 0.042
MRPL51 (UniProt Q4U2R6),inactive: 0.02,inactive: -0.005,inactive: 0.048,inactive: 0.011,inactive: -0.038,inactive: 0.066,inactive: 0.006,inactive: -0.062,inactive: 0.051,inactive: 0.017,inactive: 0.032,inactive: 0.028,inactive: 0,inactive: -0.044,inactive: 0.022,inactive: 0.038,inactive: -0.309,inactive: 0.16,inactive: 0.02,inactive: 0.008

# Shown with bars between the fields: entries from further up
Target | log2 fold change (ibrutinib) | log2 fold change [1] | log2 fold change (ralimetinib) | log2 fold change [2] | log2 fold change [3] | log2 fold change [4] | log2 fold change [5] | log2 fold change [6] | log2 fold change [7] | log2 fold change [8] | log2 fold change (vemurafenib) | log2 fold change [9] | log2 fold change (barasertib) | log2 fold change [10] | log2 fold change (volasertib) | log2 fold change [11] | log2 fold change [12] | log2 fold change [13] | log2 fold change (saracatinib) | log2 fold change (sotrastaurin)
MRPS6 (UniProt P82932) | inactive: 0.036 | inactive: 0.039 | inactive: 0.016 | inactive: -0.012 | inactive: -0.034 | inactive: 0.065 | inactive: -0.063 | inactive: 0.05 | inactive: 0.037 | inactive: 0.03 | inactive: 0.002 | inactive: -0.013 | inactive: -0.013 | inactive: 0.013 | inactive: 0.049 | inactive: 0.035 | inactive: -0.037 | inactive: -0.01 | inactive: 0.01 | inactive: 0.036
MRPL40 (UniProt Q9NQ50) | inactive: 0.016 | inactive: 0.077 | inactive: 0.034 | inactive: -0.031 | inactive: -0.005 | inactive: -0.016 | inactive: -0.116 | inactive: 0.037 | inactive: 0.016 | inactive: -0.002 | inactive: -0.039 | inactive: 0.003 | inactive: -0.033 | inactive: 0.147 | inactive: 0.032 | inactive: -0.01 | inactive: 0.031 | inactive: -0.046 | inactive: 0.019 | inactive: 0.014
MRPL3 (UniProt P09001) | inactive: 0.122 | inactive: 0.005 | inactive: 0.038 | inactive: 0.011 | inactive: 0.027 | inactive: 0.015 | inactive: -0.106 | inactive: -0.073 | inactive: 0.029 | inactive: 0.039 | inactive: 0.064 | inactive: 0.013 | inactive: -0.004 | inactive: -0.001 | inactive: -0.009 | inactive: 0.007 | inactive: -0.199 | inactive: 0.042 | inactive: -0.068 | inactive: 0.023
